Measured values taken from PubChem BioAssay AID1671190 (National Center for Advancing Translational Sciences (NCATS), 2021).
Screen size: about 580,000 compounds; about 6,100 (1.1%) were called active. Inconclusive results, whose numbers are uncertain, are shown with a selection of clear calls. The call rests on the fitted dose curve; in most records, active means well fitted inhibition curve with a large enough effect; inconclusive means small, poorly fitted or top-dose-only effect, or another doubt; inactive means no such curve, though single readings can be large or run the other way. A potency beside an inconclusive call is a rough fit, not a confirmed value.

Amino acid sequences for entries named in this document (tags omitted). A change or cut given only in a name is not applied to a line headed by its entry.
UniProt P18054: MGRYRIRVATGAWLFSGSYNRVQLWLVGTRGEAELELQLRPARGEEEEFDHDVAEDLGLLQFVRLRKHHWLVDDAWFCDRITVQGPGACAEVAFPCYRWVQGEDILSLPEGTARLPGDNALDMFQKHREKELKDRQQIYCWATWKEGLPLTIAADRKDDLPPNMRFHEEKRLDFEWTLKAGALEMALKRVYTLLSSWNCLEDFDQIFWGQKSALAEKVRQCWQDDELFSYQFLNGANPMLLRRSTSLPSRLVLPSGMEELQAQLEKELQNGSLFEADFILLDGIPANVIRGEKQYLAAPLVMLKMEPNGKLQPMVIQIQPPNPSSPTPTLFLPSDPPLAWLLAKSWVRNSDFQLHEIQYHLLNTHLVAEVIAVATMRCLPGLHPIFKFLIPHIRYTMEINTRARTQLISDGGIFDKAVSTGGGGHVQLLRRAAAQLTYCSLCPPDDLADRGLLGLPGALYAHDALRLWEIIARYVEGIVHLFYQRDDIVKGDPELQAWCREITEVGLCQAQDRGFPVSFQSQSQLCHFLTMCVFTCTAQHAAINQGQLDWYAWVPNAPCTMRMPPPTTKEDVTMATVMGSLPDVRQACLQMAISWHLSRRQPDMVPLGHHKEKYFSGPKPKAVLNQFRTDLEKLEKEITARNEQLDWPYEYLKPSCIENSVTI

Target: Polyunsaturated fatty acid lipoxygenase ALOX12 (Homo sapiens) (UniProt P18054)
Test: Primary qHTS assay for inhibitors of human arachidonate 12S-lipoxygenase (ALOX12): Round 2
Details: purified 12hLO, xylenol orange hydroperoxide absorbance; activity change, negative = inhibition: at 108 µM (top of the series) unless noted
Procedure, shortened: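 Purified human 12hLO at 150 nM in 25 mM Hepes, 0.01% Triton X-100, pH 7.0, preincubated 15 min at room temperature with compound. Reaction started with 40 uM arachidonic acid, 30 min at room temperature. Hydroperoxide measured by Fe-xylenol orange, 573/405 nm absorbance ratio.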
On the % scale 0 is the no-effect control and ±100 the full control effect; potency means the concentration at half of the fitted maximal effect.

SMILES | Potency | activity change, negative = inhibition
COc1cc(C2C(=O)c3ccccc3C2=O)ccc1O | inconclusive: 79.4 µM [inhibitor, partial curve, poor fit] | 
Cc1ccc2nc(-c3ccc(NC(=S)NC4CC(C)(C)NC(C)(C)C4)cc3)sc2c1 | inconclusive: 50.1 µM [inhibitor, partial curve, poor fit] | 
CCCCCCn1c(N)c(C#N)c2ccc([N+](=O)[O-])cc2c1=O | inconclusive: 31.6 µM [inhibitor, partial curve] | 
CCCN(CC(=O)Nc1ccc(Cl)cc1Cl)C(=O)/C=C/c1ccco1 | inconclusive: 50.1 µM [inhibitor, partial curve, poor fit] | 
Nc1nc(Nc2cc(Cl)cc(Cl)c2)nc(-c2cc3ccccc3o2)n1 | inconclusive: 25.1 µM [inhibitor, partial curve, poor fit] | 
Cc1n[nH]c(=S)c2nn(-c3ccccc3F)c(C)c12 | inconclusive: 141 µM [inhibitor, single point] | 
Cc1cccnc1NC(=S)Nc1ccc(Br)cc1Cl | active: 11.2 µM | 
Nc1c(Cl)cc(-c2csc(N3CCCC3c3nc4cc(Cl)c(N5CCCCC5)cc4n3CCCO)n2)cc1Cl (stereo unspecified) | inconclusive: 70.8 µM [inhibitor, single point] | 
CCc1cc(-c2[nH]ncc2-c2ccc3c(c2)OCO3)c(O)cc1O | inconclusive: 44.7 µM [inhibitor, partial curve, poor fit] | 
CCN(Cc1ccccc1)c1ccc(/C=C(\C#N)c2ccccn2)cc1 | inconclusive: 7.08 µM [inhibitor, full curve, poor fit] | 
O=C(Nc1nnc(-c2ccc3c(c2)CCCC3)o1)c1ccccc1 | inconclusive: 31.6 µM [inhibitor, single point] | 
CCOC(=O)C1=C(CSc2nc3ccccc3s2)NC(=O)NC1c1cc(C)ccc1C (stereo unspecified) | inactive | 
CCOCc1nnc(NC(=O)CSc2ccccc2)s1 | inconclusive: 2 µM [inhibitor, full curve, poor fit] | 
CCCn1cc(C(=O)CSc2nnc(C)s2)c2ccccc21 | inconclusive: 50.1 µM [inhibitor, single point] | 
CCOC(=O)c1ccc(NC(=O)COc2cccc3c(=O)n(C)ccc23)cc1 | inconclusive: 126 µM [inhibitor, single point] | 
Cc1ccc2oc(C(=O)Nc3cccnc3)cc(=O)c2c1 |  | inconclusive: -37.5% [inhibitor]
O=C(CCCCCCC(=O)N/N=C/c1ccc(Cl)cc1)N/N=C/c1ccc(Cl)cc1 | inactive | 
CCOC(=O)N1CCN(S(=O)(=O)c2ccc(C(=O)N(CCN(CC)CC)c3nc4c(C)cccc4s3)cc2)CC1 | inconclusive: 44.7 µM [inhibitor, partial curve, poor fit] | 
CC(=O)Nc1cc(-c2ccsc2)cn2c(-c3ccc(F)cc3)cnc12 | inconclusive: 50.1 µM [inhibitor, partial curve, poor fit] | 
Cc1cc(Cl)ccc1C(O)c1ncc(-c2ccc3ccccc3c2)[nH]1 (stereo unspecified) | inconclusive: 56.2 µM [inhibitor, single point] | 
CC(C)=CCC[C@](C)(OC1OC(COC2OCC(O)C(O)C2O)C(O)C(O)C1O)C1CC[C@]2(C)C1C(O)CC1[C@@]3(C)CCC(O[C@@H]4O[C@H](CO)C(O)C(O)C4O[C@@H]4OC(CO)C(O)C(O)C4O)C(C)(C)C3CC[C@]12C (stereo partly specified) | inconclusive: 44.7 µM [inhibitor, partial curve, poor fit] | 

SMILES | Potency | activity change, negative = inhibition
O=C(NCc1ccc(Cl)cc1)C1CCN(C(=O)c2ncn3c2COC(c2ccccc2)C3)CC1 (stereo unspecified) | inactive | 
Cc1cc(Cl)ccc1OCC(=O)N1CCC(c2nc3ccccc3o2)CC1 | inconclusive: 79.4 µM [inhibitor, partial curve, poor fit] | 
COc1cccc(NC(=O)N[C@H]2C[C@@H](C(=O)N[C@@H](CC(C)C)C(N)=O)N(C(=O)CC(C)(C)C)C2)c1 | inconclusive: 39.8 µM [inhibitor, full curve, poor fit] | 
Cc1ccc(N(Cc2cc3ccc(C)cc3[nH]c2=O)S(=O)(=O)c2ccccc2)cc1 | inconclusive: 89.1 µM [inhibitor, partial curve, poor fit] | 
CC1Cc2cc(/C(O)=C3/C(=O)C(=O)N(CCCN(C)C)C3c3ccncc3)ccc2O1 (stereo unspecified) | inconclusive: 22.4 µM [inhibitor, single point] | 
COc1ccc(N2C(=O)C(C)CS2(=O)=O)cc1S(=O)(=O)N1CCCc2ccccc21 (stereo unspecified) | inactive | 
CS(=O)(=O)Oc1ccc2c(c1)O/C(=C/c1cccnc1)C2=O | inconclusive: 44.7 µM [inhibitor, partial curve, poor fit] | 
Cc1ccc2oc(-c3cccc(NC(=S)NC(=O)c4cccs4)c3)nc2c1 | inactive | 
O=C(COc1ccc(F)cc1)Nc1ccc(C(=O)OCc2cc(=O)n3nc(C4CC4)sc3n2)cc1 | inactive | 
Cc1oc(-c2ccccc2)cc1C(=O)Nc1cccc2ccccc12 | inconclusive: 63.1 µM [inhibitor, partial curve, poor fit] | 
O=S(=O)(c1ccc(-c2csc(Nc3cccc4ccccc34)n2)cc1)N1CCCCC1 | active: 15.8 µM | 
COc1cc(C(CCN2CCOCC2)c2c(OC)cc(OC)c3c(-c4ccccc4)cc(=O)oc23)cc(OC)c1OC (stereo unspecified) | inconclusive: 112 µM [inhibitor, single point] | 
CCOc1ccc(NC(=O)c2sc3nc4c(cc3c2N)CN(Cc2ccccc2)CC4)cc1 | inactive | 
COc1ccc(-c2noc(-c3cc(C4CC4)[nH]n3)n2)cc1 | inactive | 
CCOC(=O)C(CSCC(=O)c1ccc(Cl)cc1)NC(=O)OC(C)(C)C (stereo unspecified) | inconclusive: 15.8 µM [inhibitor, partial curve, poor fit] | 
CCCCS(=O)(=O)NC(C)C(=O)O (stereo unspecified) | inconclusive: 14.1 µM [inhibitor, full curve, poor fit] | 
CCCCNC(=O)c1sc(=S)n2c1[nH]c(=O)c1ccccc12 | inconclusive: 22.4 µM [inhibitor, partial curve, poor fit] | 
Cn1c(=O)[nH]c(=O)c2c1nc(Cl)n2Cc1ccccc1 | inconclusive: 89.1 µM [inhibitor, partial curve, poor fit] | 
O=C(/C=C/c1cccc2ccccc12)N(Cc1cccs1)C1CC1 | inconclusive: 158 µM [inhibitor, single point] | 
O=C(COc1ccc(Cl)cc1Cl)NCCCn1ccnc1 | inconclusive: 28.2 µM [inhibitor, partial curve, poor fit] | 
COc1ccccc1N1CCN(C(=O)C2CCC(CNS(=O)(=O)c3ccc(NC(C)=O)cc3)CC2)CC1 (stereo unspecified) | inactive | 

SMILES | Potency | activity change, negative = inhibition
Cc1ccc(CC(=O)Nc2ccc(S(=O)(=O)N3CCOCC3)cc2)cc1C | inconclusive: 35.5 µM [inhibitor, partial curve, poor fit] | 
CC1CN(S(=O)(=O)c2cccc(C(=O)Nc3ccccc3N3CCOCC3)c2)CC(C)O1 (stereo unspecified) | inactive | 
COCC(=O)N1CC(C(=O)NCCc2ccc(OC)cc2)CC(c2ccc(F)c(C)c2)C1 (stereo unspecified) | inactive | 
Cc1cccc(NC(=O)COC(=O)CCc2ccc(S(=O)(=O)N3CCOCC3)cc2)c1C | inconclusive: 112 µM [inhibitor, partial curve, poor fit] | 
COc1ccc(Cn2c(C3CCN(C(=O)c4ccc(C(C)(C)C)cc4)CC3)n[nH]c2=O)cc1 | inconclusive: 35.5 µM [inhibitor, partial curve] | 
CCOc1ccc2oc(C(=O)NCc3nc4ccccc4[nH]3)c(C)c2c1 | inactive | 
COc1cc(CNCCCN2CCOCC2)cc(Br)c1OCc1ccc(Cl)cc1 | inconclusive: 44.7 µM [inhibitor, partial curve] | 
O=C(CSc1nc2c([nH]c3ccccc32)c(=O)n1-c1ccc(F)cc1)NCc1ccc(F)cc1 | inconclusive: 35.5 µM [inhibitor, partial curve, poor fit] | 
CNCCCNCc1ccc(C)s1 | inconclusive: 35.5 µM [inhibitor, partial curve, poor fit] | 
COc1cc(C(=O)Nc2ccc(N3CCCS3(=O)=O)cc2)c([N+](=O)[O-])cc1OC | inconclusive: 100 µM [inhibitor, single point] | 
COc1ccccc1NC(=O)N1CCN(c2cccc(C(F)(F)F)c2)CC1 | inactive | 
COC(=O)C1=C(C)N(Cc2ccc(Br)cc2)C(=S)NC1c1ccccc1 (stereo unspecified) | active: 39.8 µM | 
Cc1nnc(NC(=O)CN2C(=O)c3ccccc3S2(=O)=O)s1 | inconclusive: 2.51 µM [inhibitor, full curve, poor fit] | 
COc1ccc(/C=C(/C#N)c2ccccn2)cc1F | inconclusive: 0.199 µM [inhibitor, full curve, poor fit] | 
O=C(NC(Cc1ccccc1)C(=O)O)/C(=C\c1ccc(F)cc1)NC(=O)c1ccccc1 (stereo unspecified) | inconclusive: 50.1 µM [inhibitor, partial curve, poor fit] | 
COc1ccccc1N1CCN(C(=O)c2ccc3nc(-c4ccco4)c(-c4ccco4)nc3c2)CC1 | inconclusive: 14.1 µM [inhibitor, partial curve, poor fit] | 
COc1cc(/C=N\Nc2nc(-c3cccs3)c(NC(C)=O)s2)ccc1O | inconclusive: 112 µM [inhibitor, single point] | 
CC(C(=O)NC(=O)NC1CCCCC1)N1CCN(C(c2ccccc2)c2ccccc2)CC1 (stereo unspecified) | inconclusive: 22.4 µM [inhibitor, full curve, poor fit] | 
C(=C\c1ccccc1)/CN1CCN(C(c2nnnn2C2CCCC2)C2CC2)CC1 (stereo unspecified) | inconclusive: 112 µM [inhibitor, single point] | 

Filtered by structure: the compounds so far with a nitro group on carbon.
SMILES | Potency | activity change, negative = inhibition
CCCCCCn1c(N)c(C#N)c2ccc([N+](=O)[O-])cc2c1=O | inconclusive: 31.6 µM [inhibitor, partial curve] | 
COc1cc(C(=O)Nc2ccc(N3CCCS3(=O)=O)cc2)c([N+](=O)[O-])cc1OC | inconclusive: 100 µM [inhibitor, single point] | 
